# Measured values from PubChem BioAssay AID2685 (National Center for Advancing Translational Sciences (NCATS), 2010).
# Where “and” joins values, the source holds several entries; their conditions need not be identical. Equal values may be shown once. Some of the results follow. These are further read-outs of the screen, such as a control signal, another cell line or another target. No call is given for them. Most of these compounds were active or inconclusive in the main read-out, so they are no random draw. Words in brackets tell the shape of the fitted curve; partial curves, single points and poor fits give uncertain potencies.
# Experiment: qHTS Assay for Lipid Storage Modulators in Drosophila S3 Cells;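 as to cell number change: cells counted by Cell Tracker Red CMTPX staining in the red channel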
# Conditions: BODIPY lipid droplet fluorescence, 18-24 h; for cell number change: measured here: cell count max response, cells fed with added oleic acid
# Summary of the method: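 Laser-scanning cytometry quantifies lipid droplet accumulation (500–530 nm total intensity; droplet/cell object ratio) in oleic acid-fed (400 uM added) Drosophila S3 cells treated with a concentration series. 20 uM Triacsin C defined 100% inhibition.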
# [1] = measured here: cell number channel AC50, cells fed with added oleic acid
# [2] = measured here: lipid fluorescence (Fed channel) AC50, cells fed with added oleic acid
SMILES,cell number change,AC50 [1],AC50 [2]
COc1ccc(N2CCN(CCC(N)=O)CC2)cc1,-18.4%,,
CSc1ccc(/C=N/n2c(Cc3ccc(Br)cc3)n[nH]c2=S)cc1,,"0.651 µM [falling, single point]",
O=C(O)CN1C(=O)SC(Nc2ccc(C(=O)O)cc2)C1=O (stereo unspecified),4.49%,,
CCOC(=O)CNC(=O)CSc1nnc(-c2cccc(OC)c2)n1CC,-1.7%,,"6.51 µM [falling, single point]"
CCOc1ccc(C(C(=O)NC2CCCC2)N(CCOC)C(=O)CNC(=O)c2ccco2)cc1 (stereo unspecified),22.2%,,"6.51 µM [rising, single point]"
CC1Cc2ccccc2N1C(=O)CSc1nnc(Cc2ccccc2)n1CCc1ccccc1 (stereo unspecified),-18%,"1.46 µM [rising, partial curve]","2.06 µM [rising, partial curve]"
Cc1ccc(NS(=O)(=O)c2ccc(F)cc2)nc1,-8.01%,,
CCCC(=O)Nc1cc(C)c(NC(=O)Cc2ccccc2)cn1,-6.54%,,
Cc1nn(CC(=O)c2cccc(Cl)c2)c(C)c1[N+](=O)[O-],-14.7%,"6.51 µM [rising, single point]","3.66 µM [rising, single point]"
Cc1cccc(CCN(CC(=O)NCc2ccc(F)cc2)C(=O)c2csnn2)c1,-1.28%,,
CCOc1ccc(OCCNC(=O)c2cc(C3CC3)nc3c2cnn3C(C)C)cc1,34.9%,"20.6 µM [rising, single point]",
O=C(CCCOc1ccccc1)Nc1nccs1,-1.36%,,"16.4 µM [rising, partial curve]"
CCOC(=O)c1sc(NC(=O)c2ccccc2OC)nc1C,3.68%,,
COc1ccc(OC)c(C(=O)NC(CC(N)=O)c2ccc(NCCN3CCOCC3)c([N+](=O)[O-])c2)c1 (stereo unspecified),15.8%,,"23.1 µM [rising, single point]"
O=C(O)CN(Cc1ccccc1)S(=O)(=O)c1ccc(F)cc1,-11.9%,,"0.00651 µM [falling, full curve, poor fit]"
CN(NS(C)(=O)=O)c1ncc(C(F)(F)F)cc1Cl,2.85%,,
CCC(=O)NC(C)c1cc(Cl)c2cccnc2c1O (stereo unspecified),-25.6% and 13.7%,,"92 nM [falling, single point] and 13 µM [falling, partial curve]"
Cc1cc(C)n(-c2ccc(C(=O)OCn3nnc4ccccc4c3=O)cc2)n1,19.9%,,"3.66 µM [rising, partial curve]"
COC(=O)C(NC(=O)c1ccc(OC)cc1)(Nc1ncc(S(=O)(=O)c2ccc([N+](=O)[O-])cc2)s1)C(F)(F)F (stereo unspecified),-0.132%,,

# Another view of two compounds above.
SMILES | cell number change | AC50 [1] | AC50 [2]
O=C(CCCOc1ccccc1)Nc1nccs1 | -1.36% |  | 16.4 µM [rising, partial curve]
CCOC(=O)c1sc(NC(=O)c2ccccc2OC)nc1C | 3.68% |  | 
